Columns and labels:
Format in all cases: cell-based
[1] = system: late erythroid cells (Eryth II); assay: MLTA, ErythII: concentration-response and QSP model fit; details: Homo sapiens, 144 h; QSP model fit of 6-day MLTA data; read-out: EC50ErythII
Method: (§1) A custom optimized cytokine cocktail was developed using commercially available cytokines (Peprotech, New Jersey) to facilitate simultaneous multi-lineage differentiation and self-renewal of freeze-thawed primary human bone marrow-derived CD34+ cells in SFEM II media (cells and media from StemCell Technologies, Vancouver). Cultures were carried out in ultra-low attachment 96-well plates (Corning, New York) with test article added on day 0 and cultured at 37°C, 85% relative humidity, and 5% CO2 for six days before interrogating drug impact via 17-parameter flow cytometry.
(§2) The flow cytometry panel used to define hematopoietic subsets was composed of CD34-PECy7, CD90-PECY5, CD38-AF488, CD371-PE, CD45Ra-BV421, CD14-BV605, CD42b-AF647, CD10-PEDazzle594, CD235a-PerCPCy5.5 (BioLegend, California), CD15-BUV395, CD41a-APCH7, CD71-BV786 (BD Biosciences, California), and DAPI for dead cell exclusion (ThermoFisher, California). In short, Day 6 cells were harvested, FcR-blocked (FcR binding inhibitor, ThermoFisher), surface-stained, then analyzed in a buffer containing TruCount Control Beads using a BD LSR Fortessa SORP fitted with a high-throughput sampler (BD Biosciences, California). Data was analyzed in Diva 6.0.2 and exported to CSV where after all cell data was transformed to cell per mL then normalized on a per-donor basis to untreated control wells to determine drug impact. […]

[2] = system: lymphocyte progenitors (LymP); assay: MLTA, LymP: concentration-response and QSP model fit; details: Homo sapiens, 144 h, QSP model fit of 6-day MLTA data
Method: as §1, §2

granulocytes (Gran-lin) = assay: MLTA, Gran: concentration-response and QSP model fit; details: Homo sapiens, 144 h; QSP model fit of 6-day MLTA data
Method: as §1, §2

MK cells (MK-lin) = assay: MLTA, MK: concentration-response and QSP model fit; details: Homo sapiens, 144 h; QSP model fit of 6-day MLTA data
Method: as §1, §2

[3] = system: neutrophils (neutrophil-lin); assay: MLTA, Neut: concentration-response and QSP model fit; details: Homo sapiens, 144 h, QSP model fit of 6-day MLTA data
Method: as §1, §2

[4] = system: multi-potent progenitors (MPPs); assay: MLTA, MPPs: concentration-response and QSP model fit; details: Homo sapiens, 144 h; QSP model fit of 6-day MLTA data
Method: as §1, §2

B cells (B-lin) = assay: MLTA, B-lin: concentration-response and QSP model fit; details: Homo sapiens, B-cell, 144 h; QSP model fit of 6-day MLTA data
Method: as §1, §2

monocytes (monocyte-lin) = assay: MLTA, Mono: concentration-response and QSP model fit; details: Homo sapiens, 144 h, QSP model fit of 6-day MLTA data
Method: as §1, §2

[5] = system: hematopoietic stem cells (HSCs); assay: Multi-lineage toxicity assay (MLTA), HSCs: concentration-response and QSP model fit; details: Homo sapiens, Hematopoietic stem cell, 144 h; QSP model fit of 6-day MLTA data
Method: as §1, §2

[6] = system: early erythroid cells (Eryth I); assay: MLTA, ErythI: concentration-response and QSP model fit; details: Homo sapiens, 144 h; QSP model fit of 6-day MLTA data; read-out: EC50ErythI
Method: as §1, §2

CCc1cnn2c(NCc3ccc[n+]([O-])c3)cc(N3CCCC[C@H]3CCO)nc12 [dinaciclib]
EC50 [1]: 0.0328 µM | EC50 [2]: 0.0257 µM | EC50 (granulocytes (Gran-lin)): 0.168 µM | EC50 (MK cells (MK-lin)): 0.0232 µM | EC50 [3]: 0.0142 µM | EC50 [4]: 0.0167 µM | EC50 (B cells (B-lin)): 0.0416 µM | EC50 (monocytes (monocyte-lin)): 0.0284 µM | EC50 [5]: 0.0707 µM | EC50 [6]: 0.0258 µM

Source: article PMC7402526, “An in vitro quantitative systems pharmacology approach for deconvolving mechanisms of drug-induced, multilineage cytopenias” (PLoS Computational Biology, 2020)
